Source: US5663297A (Hoffmann-La Roche Inc., priority 1989, dated 1997)
Strings that start with PEPTIDE1 are HELM notation: dots part the residues, brackets hold end groups and non-standard residues.

Experiment: peptide synthesis
Details: acetate, trifluoroacetate, hydrochloride, hydroiodide

Row | Substance | step yield (late stage modification step) | step yield (coupling step)
1 | [N-Boc-3-(p-aminophenyl)-L-alanyl]-Gly-Asp(OtBu)-Val-OtBu | 79% | 
2 | [3-(p-guanidinophenyl)-L-alanyl]-Gly-Asp-Val-OH pentahydrochloride | 53% | 
3 | [N-Boc-3-(p-guanidinophenyl)-L-alanyl]-Gly-Asp(OtBu)-Val-OtBu | 54% | 
4 | [N-Boc-3-(p-nitrophenyl)-L-alanyl]-Gly-Asp(OtBu)-Val-OtBu |  | 72%
5 | PEPTIDE1{[L-Phe(4-Am)].G.D.V}$$$$V2.0 | 75% | 
